The values that follow come from article PMC7819943, “Rice protein-binding microarrays: a tool to detect cis-acting elements near promoter regions in rice”.

By UniProt entry, the sequences of proteins in these tests, tags left out.
UniProt Q0JBA9, entry or part of it: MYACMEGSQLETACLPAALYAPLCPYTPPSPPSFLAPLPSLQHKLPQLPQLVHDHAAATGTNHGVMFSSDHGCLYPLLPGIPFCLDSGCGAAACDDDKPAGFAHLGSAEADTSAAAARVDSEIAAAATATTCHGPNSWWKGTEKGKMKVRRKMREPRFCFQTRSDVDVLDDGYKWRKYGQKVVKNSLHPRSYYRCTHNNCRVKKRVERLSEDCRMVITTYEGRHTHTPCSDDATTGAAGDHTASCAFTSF

The list shows a part of the results.

This assay addresses OsWRKY34 (Oryza sativa, UniProt Q0JBA9 1-250). Nature of the assay: protein-binding microarray (RPBM); PBS, 2% BSA, 51.3 ng/ul salmon testes DNA, 50 uM zinc acetate, 200 nM TF, 25 C, 1 h; high values mean tight binding. The note with it: protein: recombinant; tags: N-terminal polyhistidine and DsRed monomer fusion (pET32a); label: CyDye5-dUTP incorporated in the synthesized complementary strand; 3' TTTTT single-stranded linker to array surface; dsDNA, one strand shown. The gist of the method:
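An Axon 4000B scanner gave the binding signal as per-feature fluorescence intensity in arbitrary units. This followed washing of a custom Agilent array that had been incubated for 1 h at 25 °C with 200 nM protein in PBS, 2% BSA, salmon testes DNA and 50 µM zinc acetate. The proteins were transcription factors fused at the N-terminus to polyhistidine and DsRed, expressed in E. coli BL21-CodonPlus and purified on Ni–NTA.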
For “ACTCTAGAGCTTTTCTTTGGTTTGCTTATCCTTATGCTTACGGAGTCACCTAGTGCAG”, the binding signal was 10400 fluorescence intensity (a.u.).
On to “TATTACCCGCATTGTTCAACTGCCATTTCTCTCCTCAATTCGGAGTCACCTAGTGCAG”, for which the binding signal is 8610 fluorescence intensity (a.u.).
With “CACTCTTCCGCCGCGCTATATAAACCGCGCGAGGCGTCGTCGGAGTCACCTAGTGCAG”, the binding signal is 9460 fluorescence intensity (a.u.).
Then “GCACAAACTTCCTTACTGTTCACACATTTTCAACTGTCCTCGGAGTCACCTAGTGCAG”, with 8330 fluorescence intensity (a.u.).
Then “AAACGATACTGATCCCACCTAGTATCCTAATTTTTGTAGTCGGAGTCACCTAGTGCAG”, with 9100 fluorescence intensity (a.u.); and “ATTTTAAGACGGATGGAATAGTGGTGTGTAGTTTCAAAATCGGAGTCACCTAGTGCAG”, with 8280 fluorescence intensity (a.u.).
Then “TTGGTTTTGGTTTGGGTGGTTGATGTGTGGGTGGTGGTGGCGGAGTCACCTAGTGCAG”, with 19000 fluorescence intensity (a.u.); and “ATTATTTTTGGTTGTTCTATTTATTTTCTTAAAATAATTCCGGAGTCACCTAGTGCAG”, with 11300 fluorescence intensity (a.u.).
Turning to “AGGCTTTTTTTTTTACATTTTTCACCAGGGCTTTGCTCGCCGGAGTCACCTAGTGCAG”, the binding signal is 9890 fluorescence intensity (a.u.).
Regarding “GTACTCGCAAAATCCTTCGCGACCAAGGTACCTAATGTTGCGGAGTCACCTAGTGCAG”, the binding signal was 8710 fluorescence intensity (a.u.).
As for “ACGTTTTGTACTTGGTGTGACTCCTAACTGCCTACTAAGCCGGAGTCACCTAGTGCAG”, the binding signal was 9200 fluorescence intensity (a.u.).
Take “AATGCGCCTCGCATCGCCCAAGTAGTCGTCTCTAAATTCTCGGAGTCACCTAGTGCAG”: the binding signal was 8360 fluorescence intensity (a.u.).
Then “TGCAAACTTACCACCCAATCCGCATGCCTTCTCTAATGCACGGAGTCACCTAGTGCAG”, with 8990 fluorescence intensity (a.u.); and “CTCCCACCGCGCCGCCTCTCCTCTCCACCACCCAGTGAACCGGAGTCACCTAGTGCAG”, with 9490 fluorescence intensity (a.u.); and “TATGATTGACGATGTGGGAGGGTGTAGGGAAATAGTTGTCCGGAGTCACCTAGTGCAG”, with 8340 fluorescence intensity (a.u.).
On to “ACGTGGGTGGTGACCGGAATCGGGGTGGTAAAAATCCAAACGGAGTCACCTAGTGCAG”, for which the binding signal is 8630 fluorescence intensity (a.u.).
Take “GGTGGTGGTGGTGCCGCTGCTCCAAGCCGCGACCCTCCAACGGAGTCACCTAGTGCAG”: the binding signal was 8460 fluorescence intensity (a.u.).
Turning to “CACTCCACTCCAAAACATCTCAATGTCCTTCTTTATATATCGGAGTCACCTAGTGCAG”, the binding signal is 8080 fluorescence intensity (a.u.).
Turning to “ACGACAGATGCATCCTCCGCATACACTTCAGATTTGCTATCGGAGTCACCTAGTGCAG”, the binding signal is 8320 fluorescence intensity (a.u.).
Then “GTCGTTGACTTTTTAACCACAACGTTTGACCATTCGTCTTCGGAGTCACCTAGTGCAG”, with 21800 fluorescence intensity (a.u.); and “CCTGTGCGGTCCTTTGACAAGGTCTTCGCTTGGCGAAGTTCGGAGTCACCTAGTGCAG”, with 8200 fluorescence intensity (a.u.); and “ACTTTATTTTGTGGGCTGAGATAGTAAATGGACTGAAAAACGGAGTCACCTAGTGCAG”, with 8080 fluorescence intensity (a.u.).
For “CGCCAGCTAGTTTTGTTTTTGCTGCGGCAACTGCGCTACTCGGAGTCACCTAGTGCAG”, the binding signal is 8060 fluorescence intensity (a.u.).
As to “TACCTACTCCTAGTTGCATGATATGCTCTTCTTCTTCTCTCGGAGTCACCTAGTGCAG”, the binding signal is 10600 fluorescence intensity (a.u.).
Then “GCCGCTGCTCCTGTTTGTCATTAGGGTAGGCCCGCGTGAACGGAGTCACCTAGTGCAG”, with 8270 fluorescence intensity (a.u.).
Turning to “GAATTTGCTCTATCATGAAGTGATACATCATTAGCGGCAGCGGAGTCACCTAGTGCAG”, the binding signal is 8710 fluorescence intensity (a.u.).
As for “CGCATCTTCCGCCGCCTCTGCCTCCGCCTCCGCCCTGGCTCGGAGTCACCTAGTGCAG”, the binding signal is 9320 fluorescence intensity (a.u.).
In the case of “AATGTTTCTTATTTGGTTTTAAATTTCAGCGAAATTTTGACGGAGTCACCTAGTGCAG”, the binding signal is 8180 fluorescence intensity (a.u.).
With “TTAATACCTCCATTTATTCTTGTTGCATGCACGGTATTAACGGAGTCACCTAGTGCAG”, the binding signal is 9900 fluorescence intensity (a.u.).
For “AATTCAGTTTAGTATCATGATTTTTTGGATATTGTTTTAACGGAGTCACCTAGTGCAG”, the binding signal was 8230 fluorescence intensity (a.u.).
As to “AGCGTGCCTCAACTTCTCCAACTCCGCGTGGCTGCTCGCCCGGAGTCACCTAGTGCAG”, the binding signal is 8050 fluorescence intensity (a.u.).
Take “TTTTCTCTTACATCTTGGGCTTTTATATGGGCCGGTGGCTCGGAGTCACCTAGTGCAG”: the binding signal was 11100 fluorescence intensity (a.u.).
On to “CGCACTCACCCCGTCACCCGACGCCGCCGACTCCTCCCTCCGGAGTCACCTAGTGCAG”, for which the binding signal was 9000 fluorescence intensity (a.u.).
Turning to “AACATTACTACCTCCATCCTAAAATACATTTTTTTATCCACGGAGTCACCTAGTGCAG”, the binding signal was 8500 fluorescence intensity (a.u.).
Consider “AAAGAAAATCATCTCGTTTCTATCTATCATTGTCACTTTTCGGAGTCACCTAGTGCAG”, for which the binding signal is 11000 fluorescence intensity (a.u.).
Take “AACCTTTTCTTTCTTTCTTCACTTTGGTTGCGTTGCGTCTCGGAGTCACCTAGTGCAG”: the binding signal is 24200 fluorescence intensity (a.u.).
Consider “TTGATTTCTTCTGTTTGGTCCAAAACCGTGTGTTGCTCTTCGGAGTCACCTAGTGCAG”, for which the binding signal is 10900 fluorescence intensity (a.u.).
With “AAACTTCCAACTTTTCCGTCATATTGTTCCAATTTTCTTCCGGAGTCACCTAGTGCAG”, the binding signal was 13200 fluorescence intensity (a.u.).
With “GATGTGGTTTATCCTCCTTACTCTTGAACCTATGAACACTCGGAGTCACCTAGTGCAG”, the binding signal is 9480 fluorescence intensity (a.u.).
Then “TTTTATAATATGTTATTGTAGCAGTTTTTGTGAGCTATTACGGAGTCACCTAGTGCAG”, with 8100 fluorescence intensity (a.u.); and “TGCACTACCAACCTTTTCTGCATCTTGCTTATATTTTTGCCGGAGTCACCTAGTGCAG”, with 9420 fluorescence intensity (a.u.); and “CCACCTGCTCTTGGTCCCACTCATGGCCCCACACTACTATCGGAGTCACCTAGTGCAG”, with 8950 fluorescence intensity (a.u.).
For the sequence “CCCAACCCAACCGCCGCCACCACTCACCGGCGCAACCACCCGGAGTCACCTAGTGCAG”, the binding signal is 8780 fluorescence intensity (a.u.).
In the case of “GGTGAGGTGGTGGTGGTGGTGGTCGGGAAGTGGCGGCGCCCGGAGTCACCTAGTGCAG”, the binding signal is 16100 fluorescence intensity (a.u.).
Take “CAACTTTTCTACATTGCAATCAATTAATTTAGCTCTACAACGGAGTCACCTAGTGCAG”: the binding signal was 9460 fluorescence intensity (a.u.).
On to “CACAAAGGCGCACGGGAGGGAGGGAGGGACGAAAAGAGATCGGAGTCACCTAGTGCAG”, for which the binding signal was 9590 fluorescence intensity (a.u.).
In the case of “TAAGGGATTTTGACATTTTACTTGTACTGTTTGACCATTCCGGAGTCACCTAGTGCAG”, the binding signal is 10400 fluorescence intensity (a.u.).
As for “CGACAAAATTCAACCGTAATTTCAACGTTTTCCTAACTTTCGGAGTCACCTAGTGCAG”, the binding signal is 8990 fluorescence intensity (a.u.).
For “CTCACCCACAGCGTCTTCGTTACCACTGCGCATCCACCACCGGAGTCACCTAGTGCAG”, the binding signal is 8730 fluorescence intensity (a.u.).
As for “ATCCAACACACGCAGATCACAAGTTGCAACTTTGCGGGCCCGGAGTCACCTAGTGCAG”, the binding signal is 8160 fluorescence intensity (a.u.).
Regarding “CGATGTGTTGTGTGCTGCTGCAAATTATCATATTGTTCATCGGAGTCACCTAGTGCAG”, the binding signal was 8260 fluorescence intensity (a.u.).
On to “GCTGGGTTTGTGGGTTTTCTCATAAGTTTAATCTCTATATCGGAGTCACCTAGTGCAG”, for which the binding signal was 17400 fluorescence intensity (a.u.).
With “GTAATTAGGGAAGGGATATTATATTTGTTTTGGTGGAAGTCGGAGTCACCTAGTGCAG”, the binding signal is 8420 fluorescence intensity (a.u.).
Turning to “CCGTTTCTACTCACCCAAGCCGCCACCGCACTTCGCACCCCGGAGTCACCTAGTGCAG”, the binding signal is 8630 fluorescence intensity (a.u.).
